PubChem BioAssay AID248 (DTP/NCI, 2004)
The list is a part of this screen's results and no random one: it is rich in T/C values a quarter to a half above the control, in often repeated tests (any T/C) and in doses without a T/C. Other doses and runs of a compound stand elsewhere. T/C is the treated group as % of the vehicle group. Some entries give survivors of the animals treated and no T/C: the source holds a T/C of zero for them, seemingly a mark for toxic or unscored doses. Some doses without a T/C left all or most animals alive at the check, yet need not have been tolerated: the source hardly ever lists a survival T/C far under the control, and the zero likely stands for such cases as well. Counts of survivors are from the toxicity check (mostly the fifth day) where no day follows; animals may have died later. Schedules are NCI's codes, read here as Q, the interval in days (D) or hours (H), X, the number of doses. For survival time, the PubChem record calls one and a half times the control and up active, and a quarter to a half above the control has no call in these data; cut-offs in other NCI protocols can differ. Some entries hold several experiments; the values are given in rising order.

System: L1210 leukemia ip in BDF1 mice, survival T/C
Test: NCI In Vivo Anticancer Drug Screen. Data for tumor model L1210 Leukemia (intraperitoneal) in B6D2F1 (BDF1) mice
Conditions: T/C endpoint: mean survival time, higher T/C = longer survival
[1] = dose: 100.0 mg/kg/injection, schedule: Q04DX003 (ip), vehicle: saline with Tween-80
[2] = dose: 200.0 mg/kg/injection, schedule: Q04DX003 (ip), vehicle: saline with Tween-80
[3] = dose: 400.0 mg/kg/injection, schedule: Q04DX003 (ip), vehicle: saline with Tween-80
[4] = dose: 400.0 mg/kg/injection, schedule: Q01DX001 (ip), vehicle: saline
[5] = dose: 100.0 mg/kg/injection, schedule: Q04DX003 (ip), vehicle: Klucel (hydroxypropylcellulose) (HPC)
[6] = dose: 200.0 mg/kg/injection, schedule: Q04DX003 (ip), vehicle: Klucel (hydroxypropylcellulose) (HPC)
[7] = dose: 400.0 mg/kg/injection, schedule: Q04DX003 (ip), vehicle: Klucel (hydroxypropylcellulose) (HPC)

**Q.** With `O=C(CBr)Nc1ccc(Cl)cc1` as the compound, how does the survivor count (dose: 38.0 mg/kg/injection, schedule: Q04DX003 (ip), vehicle: Klucel (hydroxypropylcellulose) (HPC)) read?
**A.** The survivor count was 2 of 6.

**Q.** What about the survivor count (dose: 75.0 mg/kg/injection, schedule: Q04DX003 (ip), vehicle: Klucel (hydroxypropylcellulose) (HPC)) of the same compound?
**A.** Its survivor count is 0 of 6.

**Q.** And the survivor count (dose: 150.0 mg/kg/injection, schedule: Q04DX003 (ip), vehicle: Klucel (hydroxypropylcellulose) (HPC))?
**A.** Its survivor count is 0 of 6.

**Q.** And the survivor count (dose: 200.0 mg/kg/injection, schedule: Q01DX001 (ip), vehicle: other)?
**A.** The survivor count was 1 of 4.

**Q.** What about the survivor count (dose: 400.0 mg/kg/injection, schedule: Q01DX001 (ip), vehicle: other) of the same compound?
**A.** The survivor count was 0 of 4.

**Q.** With `OCC1C2CCC(CC2)C1CO` (configuration not stated) as the compound, how does the survivor count (dose: 50.0 mg/kg/injection, schedule: Q01DX009 (ip), vehicle: saline) read?
**A.** Its survivor count is 0 of 6.

**Q.** And the survivor count [1]?
**A.** The survivor count was 2 of 6.

**Q.** And the survivor count [2]?
**A.** Its survivor count is 1 of 6.

**Q.** What about the survivor count [3] of the same compound?
**A.** The survivor count was 0 of 6.

**Q.** With `NC(=S)c1nn(C2OC(CO)C(O)C2O)c2ncnc(N)c12` (configuration not stated) as the compound, how does the T/C (dose: 1.56 mg/kg/injection, schedule: Q01DX009 (ip), vehicle: saline) read?
**A.** Its T/C is 138 and 143 % of control.

**Q.** What about the T/C (dose: 3.12 mg/kg/injection, schedule: Q01DX009 (ip), vehicle: saline) of the same compound?
**A.** The T/C was 129 % of control.

**Q.** What about the survivor count (dose: 12.5 mg/kg/injection, schedule: Q01DX005 (ip), vehicle: saline) of the same compound?
**A.** The survivor count was 2 of 6.

**Q.** What about the survivor count (dose: 25.0 mg/kg/injection, schedule: Q01DX005 (ip), vehicle: saline) of the same compound?
**A.** The survivor count was 0 of 6.

**Q.** What does the source list for `O=C(N/N=C\c1cc(=O)[nH]c(=O)[nH]1)c1ccccc1`?
**A.** survivor count (dose: 200.0 mg/kg/injection, schedule: Q01DX001 (ip), vehicle: saline): 2 of 4; survivor count [4]: 1 of 4

**Q.** With `CC(C)(C)c1ccccc1OC(=O)Nc1ccc(F)cc1` as the compound, how does the survivor count (dose: 200.0 mg/kg/injection, schedule: Q01DX009 (ip), vehicle: carboxymethylcellulose (CMC)) read?
**A.** Its survivor count is 3 of 3.

**Q.** What about the survivor count (dose: 400.0 mg/kg/injection, schedule: Q01DX009 (ip), vehicle: carboxymethylcellulose (CMC)) of the same compound?
**A.** The survivor count was 2 of 3.

**Q.** Which survivor count [4] does the source give for `CCCOc1ccc(C)cc1` here?
**A.** The survivor count was 0 of 4.

**Q.** With `CCCCCCCCCCCCCCCCCC1=NCC[N+]1(CCO)Cc1ccccc1` (configuration not stated) (tested in a mixture with another compound) as the compound, how does the survivor count (dose: 50.0 mg/kg/injection, schedule: Q04DX003 (ip), vehicle: saline with Tween-80) read?
**A.** The survivor count was 2 of 6.

**Q.** And the survivor count [1]?
**A.** Its survivor count is 0 of 6.

**Q.** What about the survivor count [2] of the same compound?
**A.** The survivor count was 0 of 6.

**Q.** And the survivor count [3]?
**A.** Its survivor count is 0 of 6.

**Q.** Which results are given for `COC(=O)C(Br)C(=O)OC`?
**A.** survivor count (dose: 50.0 mg/kg/injection, schedule: Q04DX002 (ip), vehicle: saline with Tween-80): 1 of 3; survivor count (dose: 100.0 mg/kg/injection, schedule: Q04DX002 (ip), vehicle: saline with Tween-80): 0 of 3; survivor count (dose: 200.0 mg/kg/injection, schedule: Q04DX002 (ip), vehicle: saline with Tween-80): 0 of 3; survivor count (dose: 400.0 mg/kg/injection, schedule: Q04DX002 (ip), vehicle: saline with Tween-80): 0 of 3

**Q.** For `O=C(O)c1cc(O)ccc1O`, which survivor count [3] is on record?
**A.** The survivor count was 3 of 6.

**Q.** With `CN(C)CCCNc1c2ccccc2nc2ccccc12` as the compound, how does the survivor count (dose: 80.0 mg/kg/injection, schedule: Q01DX001 (ip), vehicle: saline) read?
**A.** Its survivor count is 3 of 4.

**Q.** How did the survivor count (dose: 400.0 mg/kg/injection, schedule: Q04DX003 (ip), vehicle: other) turn out when `CC(C)(C)P1(=O)OCC(c2ccccc2)CO1` (configuration not stated) was run?
**A.** Its survivor count is 3 of 6.

**Q.** For `CSC(=S)NNC(=O)c1cccc([N+](=O)[O-])c1`, which survivor count [5] is on record?
**A.** Its survivor count is 0 of 6.

**Q.** What about the survivor count [6] of the same compound?
**A.** The survivor count was 0 of 6.

**Q.** And the survivor count [7]?
**A.** Its survivor count is 0 of 6.

**Q.** For `N/C(=N\OC(=O)Nc1ccc(Cl)cc1)C(Cl)(Cl)Cl`, which survivor count (dose: 400.0 mg/kg/injection, schedule: Q01DX009 (ip), vehicle: Klucel (hydroxypropylcellulose) (HPC)) is on record?
**A.** Its survivor count is 1 of 6.

**Q.** How did the T/C (dose: 100.0 mg/kg/injection, schedule: Q01DX009 (ip), vehicle: saline with Tween-80) turn out when `CN(Cc1ccccc1)C(=O)NC1CCCCC1` was run?
**A.** The T/C was 133 % of control.

**Q.** Which survivor count [5] does the source give for `COc1cccc(C)c1NC(=O)Nc1c(C)cccc1OC` here?
**A.** The survivor count was 6 of 6.

**Q.** And the survivor count [6]?
**A.** The survivor count was 6 of 6.

**Q.** What about the survivor count [7] of the same compound?
**A.** Its survivor count is 6 of 6.
